According to the supplement of paper PMC10849652:
Some of the results follow.

The chains behind the UniProt entries cited, without tags or fusion partners. Where a name states a change or a piece, a line headed by the entry shows the natural chain unless it says otherwise.
UniProt P53992: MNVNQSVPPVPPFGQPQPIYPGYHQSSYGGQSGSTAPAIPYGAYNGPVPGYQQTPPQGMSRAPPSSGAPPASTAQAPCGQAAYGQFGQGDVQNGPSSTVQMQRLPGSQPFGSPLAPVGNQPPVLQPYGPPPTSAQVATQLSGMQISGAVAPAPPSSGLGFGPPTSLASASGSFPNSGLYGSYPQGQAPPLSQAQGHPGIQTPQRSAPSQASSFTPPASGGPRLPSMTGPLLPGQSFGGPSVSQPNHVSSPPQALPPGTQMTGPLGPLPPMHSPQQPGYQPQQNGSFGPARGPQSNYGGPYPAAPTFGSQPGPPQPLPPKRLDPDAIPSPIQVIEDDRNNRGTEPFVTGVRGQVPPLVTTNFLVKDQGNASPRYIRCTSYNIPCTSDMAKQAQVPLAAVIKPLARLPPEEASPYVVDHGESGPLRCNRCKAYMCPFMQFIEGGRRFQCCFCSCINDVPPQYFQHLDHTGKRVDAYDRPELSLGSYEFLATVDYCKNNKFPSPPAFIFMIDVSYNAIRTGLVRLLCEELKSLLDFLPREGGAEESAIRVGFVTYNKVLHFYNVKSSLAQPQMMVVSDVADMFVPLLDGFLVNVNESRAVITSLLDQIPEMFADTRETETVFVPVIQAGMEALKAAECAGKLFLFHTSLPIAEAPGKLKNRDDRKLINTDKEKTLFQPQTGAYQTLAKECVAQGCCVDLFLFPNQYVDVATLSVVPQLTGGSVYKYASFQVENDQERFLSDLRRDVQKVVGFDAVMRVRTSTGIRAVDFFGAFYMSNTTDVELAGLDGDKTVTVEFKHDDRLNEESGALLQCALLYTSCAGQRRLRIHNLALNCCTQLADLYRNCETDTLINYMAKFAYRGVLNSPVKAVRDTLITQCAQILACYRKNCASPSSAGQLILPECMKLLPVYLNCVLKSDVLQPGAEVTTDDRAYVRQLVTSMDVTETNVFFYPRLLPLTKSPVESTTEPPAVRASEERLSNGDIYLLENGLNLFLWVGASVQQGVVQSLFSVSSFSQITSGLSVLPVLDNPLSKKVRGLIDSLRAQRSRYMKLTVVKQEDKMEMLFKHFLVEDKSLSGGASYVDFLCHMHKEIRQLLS
UniProt Q9Y3V2: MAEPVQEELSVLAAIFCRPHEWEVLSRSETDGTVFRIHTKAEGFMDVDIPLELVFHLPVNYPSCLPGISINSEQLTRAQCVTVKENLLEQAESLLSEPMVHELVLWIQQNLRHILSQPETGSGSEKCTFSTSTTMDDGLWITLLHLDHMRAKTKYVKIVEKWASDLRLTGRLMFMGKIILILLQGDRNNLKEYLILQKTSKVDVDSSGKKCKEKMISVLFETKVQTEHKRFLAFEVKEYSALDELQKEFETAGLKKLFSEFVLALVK
UniProt Q96GA7: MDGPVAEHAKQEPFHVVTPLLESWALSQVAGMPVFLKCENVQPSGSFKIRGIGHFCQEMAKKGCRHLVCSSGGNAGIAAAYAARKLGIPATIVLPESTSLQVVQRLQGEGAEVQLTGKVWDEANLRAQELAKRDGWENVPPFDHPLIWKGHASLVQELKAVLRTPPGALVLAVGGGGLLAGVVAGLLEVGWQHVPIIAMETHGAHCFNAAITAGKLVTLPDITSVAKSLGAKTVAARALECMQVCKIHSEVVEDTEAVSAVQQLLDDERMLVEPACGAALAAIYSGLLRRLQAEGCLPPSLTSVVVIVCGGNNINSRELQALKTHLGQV
UniProt O75396: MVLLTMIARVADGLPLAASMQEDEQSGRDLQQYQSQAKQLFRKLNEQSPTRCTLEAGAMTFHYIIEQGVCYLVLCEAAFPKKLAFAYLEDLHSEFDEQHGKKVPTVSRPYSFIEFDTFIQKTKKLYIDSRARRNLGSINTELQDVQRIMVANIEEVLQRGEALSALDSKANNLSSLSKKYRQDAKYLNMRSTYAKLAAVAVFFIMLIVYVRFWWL
UniProt Q5VWQ0: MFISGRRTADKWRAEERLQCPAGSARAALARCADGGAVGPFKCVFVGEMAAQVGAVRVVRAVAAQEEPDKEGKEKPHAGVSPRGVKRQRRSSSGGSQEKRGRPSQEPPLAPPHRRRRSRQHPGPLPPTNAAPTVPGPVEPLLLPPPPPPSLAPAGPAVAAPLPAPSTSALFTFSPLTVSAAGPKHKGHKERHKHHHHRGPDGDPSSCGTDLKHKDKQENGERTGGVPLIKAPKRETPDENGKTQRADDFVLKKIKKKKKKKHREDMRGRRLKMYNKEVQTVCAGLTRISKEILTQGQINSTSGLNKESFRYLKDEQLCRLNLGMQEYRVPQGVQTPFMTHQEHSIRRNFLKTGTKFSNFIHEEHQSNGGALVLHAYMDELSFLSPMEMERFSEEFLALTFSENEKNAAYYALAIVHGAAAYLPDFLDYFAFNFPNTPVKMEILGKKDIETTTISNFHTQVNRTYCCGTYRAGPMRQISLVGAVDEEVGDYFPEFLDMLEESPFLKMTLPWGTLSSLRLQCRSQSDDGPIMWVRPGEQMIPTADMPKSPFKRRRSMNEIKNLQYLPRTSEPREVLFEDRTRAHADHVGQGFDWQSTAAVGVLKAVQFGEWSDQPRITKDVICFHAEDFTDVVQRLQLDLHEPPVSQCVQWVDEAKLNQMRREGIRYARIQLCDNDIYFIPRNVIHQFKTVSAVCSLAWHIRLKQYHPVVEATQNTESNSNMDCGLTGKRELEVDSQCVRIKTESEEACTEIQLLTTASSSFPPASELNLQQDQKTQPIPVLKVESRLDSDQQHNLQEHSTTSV
UniProt Q15404: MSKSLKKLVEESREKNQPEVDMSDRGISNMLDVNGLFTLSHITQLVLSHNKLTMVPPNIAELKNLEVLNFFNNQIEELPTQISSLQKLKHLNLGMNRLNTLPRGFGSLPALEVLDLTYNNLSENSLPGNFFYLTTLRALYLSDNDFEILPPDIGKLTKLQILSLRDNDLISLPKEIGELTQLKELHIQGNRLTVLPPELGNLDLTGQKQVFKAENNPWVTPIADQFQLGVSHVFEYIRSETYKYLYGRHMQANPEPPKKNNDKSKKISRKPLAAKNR
UniProt Q6NW29: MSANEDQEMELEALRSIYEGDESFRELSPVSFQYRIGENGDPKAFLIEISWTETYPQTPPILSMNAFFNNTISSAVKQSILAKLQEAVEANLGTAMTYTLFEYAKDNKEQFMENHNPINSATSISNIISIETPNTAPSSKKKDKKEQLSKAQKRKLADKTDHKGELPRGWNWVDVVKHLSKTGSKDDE
UniProt Q9Y6B6: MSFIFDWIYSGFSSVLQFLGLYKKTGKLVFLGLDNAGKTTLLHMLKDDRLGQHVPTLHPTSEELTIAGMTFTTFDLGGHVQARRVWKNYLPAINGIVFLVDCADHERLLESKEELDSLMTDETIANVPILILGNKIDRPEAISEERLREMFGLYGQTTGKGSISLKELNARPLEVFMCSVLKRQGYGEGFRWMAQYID
UniProt Q9BY50: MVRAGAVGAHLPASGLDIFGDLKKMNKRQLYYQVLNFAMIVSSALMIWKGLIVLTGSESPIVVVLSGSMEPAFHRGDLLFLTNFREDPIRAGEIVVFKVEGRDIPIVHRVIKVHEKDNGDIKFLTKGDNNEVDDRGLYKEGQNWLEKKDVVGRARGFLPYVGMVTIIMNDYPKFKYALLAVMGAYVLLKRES
UniProt Q9H446: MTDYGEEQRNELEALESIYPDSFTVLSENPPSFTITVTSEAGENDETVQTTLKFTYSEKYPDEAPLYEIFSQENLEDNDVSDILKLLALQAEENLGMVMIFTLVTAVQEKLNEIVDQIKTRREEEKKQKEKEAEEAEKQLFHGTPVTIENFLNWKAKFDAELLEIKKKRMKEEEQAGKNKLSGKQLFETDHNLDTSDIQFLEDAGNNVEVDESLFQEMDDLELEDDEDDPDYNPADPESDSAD
UniProt O43290: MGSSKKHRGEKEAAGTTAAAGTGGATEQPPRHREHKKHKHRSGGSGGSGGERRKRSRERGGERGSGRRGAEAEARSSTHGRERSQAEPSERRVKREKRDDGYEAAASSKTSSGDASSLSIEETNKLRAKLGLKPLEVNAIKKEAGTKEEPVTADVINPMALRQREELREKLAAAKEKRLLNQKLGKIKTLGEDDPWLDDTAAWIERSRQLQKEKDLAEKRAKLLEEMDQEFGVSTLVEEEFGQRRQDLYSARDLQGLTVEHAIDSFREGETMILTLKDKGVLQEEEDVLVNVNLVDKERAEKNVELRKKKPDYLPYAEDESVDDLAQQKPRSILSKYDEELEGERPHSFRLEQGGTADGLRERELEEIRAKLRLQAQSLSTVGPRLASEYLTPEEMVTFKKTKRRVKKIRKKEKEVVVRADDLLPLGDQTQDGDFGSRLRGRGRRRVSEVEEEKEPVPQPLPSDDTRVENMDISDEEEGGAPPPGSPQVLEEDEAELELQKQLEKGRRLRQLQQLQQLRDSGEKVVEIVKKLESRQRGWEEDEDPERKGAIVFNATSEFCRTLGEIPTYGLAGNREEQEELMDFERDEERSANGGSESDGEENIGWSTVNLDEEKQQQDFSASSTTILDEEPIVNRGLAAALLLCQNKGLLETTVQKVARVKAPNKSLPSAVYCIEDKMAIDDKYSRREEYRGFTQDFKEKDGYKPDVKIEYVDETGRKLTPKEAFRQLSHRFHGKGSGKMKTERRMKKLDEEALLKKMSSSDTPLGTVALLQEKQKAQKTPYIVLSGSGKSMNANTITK
UniProt P21912: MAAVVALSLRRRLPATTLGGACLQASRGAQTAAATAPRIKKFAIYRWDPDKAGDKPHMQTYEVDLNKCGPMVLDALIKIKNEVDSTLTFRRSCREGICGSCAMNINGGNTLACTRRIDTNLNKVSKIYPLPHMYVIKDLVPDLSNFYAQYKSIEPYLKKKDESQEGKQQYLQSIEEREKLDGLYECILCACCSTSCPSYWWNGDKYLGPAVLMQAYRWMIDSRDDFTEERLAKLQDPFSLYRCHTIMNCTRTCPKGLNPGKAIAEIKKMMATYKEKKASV
UniProt O75880: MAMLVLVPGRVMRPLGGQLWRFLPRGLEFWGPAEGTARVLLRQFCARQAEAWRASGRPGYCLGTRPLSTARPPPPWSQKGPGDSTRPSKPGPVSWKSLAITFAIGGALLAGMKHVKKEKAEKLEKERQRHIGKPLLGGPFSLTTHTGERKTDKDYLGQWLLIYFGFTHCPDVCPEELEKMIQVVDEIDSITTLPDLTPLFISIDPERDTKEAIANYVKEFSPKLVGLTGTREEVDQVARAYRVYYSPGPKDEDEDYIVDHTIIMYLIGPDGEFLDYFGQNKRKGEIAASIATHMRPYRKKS
UniProt A3KN83: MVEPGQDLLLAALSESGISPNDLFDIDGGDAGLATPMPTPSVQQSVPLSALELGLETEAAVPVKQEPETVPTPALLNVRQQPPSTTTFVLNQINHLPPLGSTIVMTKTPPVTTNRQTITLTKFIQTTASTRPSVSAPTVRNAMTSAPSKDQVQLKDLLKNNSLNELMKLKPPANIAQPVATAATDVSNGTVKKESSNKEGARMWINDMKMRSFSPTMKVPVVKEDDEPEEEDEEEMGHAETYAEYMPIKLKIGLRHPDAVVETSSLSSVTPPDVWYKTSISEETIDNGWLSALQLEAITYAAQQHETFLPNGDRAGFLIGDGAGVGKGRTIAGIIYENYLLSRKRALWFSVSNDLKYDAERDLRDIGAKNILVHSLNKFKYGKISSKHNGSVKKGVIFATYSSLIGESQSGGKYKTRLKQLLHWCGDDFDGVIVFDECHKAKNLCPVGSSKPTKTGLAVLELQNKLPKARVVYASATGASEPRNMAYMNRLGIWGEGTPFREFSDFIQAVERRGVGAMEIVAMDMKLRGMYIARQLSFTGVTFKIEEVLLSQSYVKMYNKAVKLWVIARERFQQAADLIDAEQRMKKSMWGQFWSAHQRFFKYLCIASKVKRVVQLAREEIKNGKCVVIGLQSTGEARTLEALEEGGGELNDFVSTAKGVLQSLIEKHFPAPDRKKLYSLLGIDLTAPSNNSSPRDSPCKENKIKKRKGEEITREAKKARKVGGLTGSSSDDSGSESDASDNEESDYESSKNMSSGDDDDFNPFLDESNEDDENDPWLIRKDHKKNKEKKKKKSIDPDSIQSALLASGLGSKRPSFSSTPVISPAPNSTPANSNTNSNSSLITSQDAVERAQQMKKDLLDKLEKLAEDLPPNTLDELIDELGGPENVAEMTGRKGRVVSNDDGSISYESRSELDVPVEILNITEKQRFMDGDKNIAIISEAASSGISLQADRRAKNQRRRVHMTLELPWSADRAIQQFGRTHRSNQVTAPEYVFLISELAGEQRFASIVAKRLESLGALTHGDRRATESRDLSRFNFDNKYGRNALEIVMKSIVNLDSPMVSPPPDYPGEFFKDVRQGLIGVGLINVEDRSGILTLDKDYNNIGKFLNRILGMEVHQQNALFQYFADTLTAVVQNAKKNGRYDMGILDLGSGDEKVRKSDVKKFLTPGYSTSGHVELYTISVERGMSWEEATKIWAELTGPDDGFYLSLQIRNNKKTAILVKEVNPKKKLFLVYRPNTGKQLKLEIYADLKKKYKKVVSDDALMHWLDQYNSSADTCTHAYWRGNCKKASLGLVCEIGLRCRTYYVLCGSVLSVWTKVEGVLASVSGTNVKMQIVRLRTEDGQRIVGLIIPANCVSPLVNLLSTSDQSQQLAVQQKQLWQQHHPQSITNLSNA

Legend:
Experiment in all cases: log2 fold change, soluble protein after heating vs DMSO (PISA); higher = thermal stabilisation; K562 cells, 10 uM, 30 min; active = over 0.2 and 3.5 SD of the protein, either way, in both replicates (recomputed)
[1] = compound: CC1=C(C=C(C=C1)NC(=O)C2=CC(=CC=C2)C(C)(C)C#N)NC3=CC4=C(C=C3)N=CN(C4=O)C
Method in brief: (§1)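 Soluble protein was quantified by TMTpro 16plex LC-MS/MS after channel sums were equalised. It was obtained as the supernatant after 21,000xg for 90 min from pooled aliquots of K562 cells (2×10^6 cells/mL, 10 μM compound, 30 min) heated for 3 min across 48°C-58°C and extracted in PBS with 0.5% NP-40 at 4°C. Thermal stability values are relative to control samples and come from duplicates. They are given as log2 fold changes.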

[2] = compound: CC1=C(C=C(C=C1)NC(=O)C2=CC(=CC=C2)N(C)C)NC(=O)C3=CC=C(C=C3)O
Method in brief: as §1

[3] = compound: CC1=CC=C(C=C1)SC2=C3C=C(SC3=CN=C2)C(=O)N
Method in brief: as §1

[4] = compound: CC1=NC(=CC=C1)C2=C(N=C(N2)C(C)(C)C)C3=CC4=NC=CN=C4C=C3
Method in brief: as §1

[5] = compound: CCCCN(Cc1ccc(C(=O)NO)cc1)C(=O)Nc1ccccc1 [Nexturastat A]
Method in brief: as §1

[6] = compound: CCCS(=O)(=O)Nc1ccc(F)c(C(=O)c2c[nH]c3ncc(-c4ccc(Cl)cc4)cc23)c1F [vemurafenib]
Method in brief: as §1

[7] = compound: CCCS(=O)(=O)Nc1ccc(F)c(C(=O)c2c[nH]c3ncc(Cl)cc23)c1F
Method in brief: as §1

[8] = compound: CCCc1cc(C)[nH]c(=O)c1CNC(=O)c1cc(-c2ccnc(N3CCN(C)CC3)c2)cc2c1cnn2C(C)C
Method in brief: as §1

[9] = compound: CCN(CC)Cc1ccc2cc(COC(=O)Nc3ccc(C(=O)NO)cc3)ccc2c1 [givinostat]
Method in brief: as §1

[10] = compound: CCN(CCCOc1ccc2c(Nc3cc(CC(=O)Nc4cccc(F)c4)[nH]n3)ncnc2c1)CCOP(=O)(O)O [barasertib]
Method in brief: as §1

[11] = compound: CC[C@@H]1C(=O)N(C)c2cnc(Nc3ccc(C(=O)NC4CCN(C)CC4)cc3OC)nc2N1C1CCCC1
Method in brief: as §1

[12] = compound: CC[C@@H]1C(=O)N(C)c2cnc(Nc3ccc(C(=O)N[C@H]4CC[C@H](N5CCN(CC6CC6)CC5)CC4)cc3OC)nc2N1C(C)C [volasertib]
Method in brief: as §1

[13] = compound: CC[C@H](C)N1C=C(C2=C(C=C(C=C21)C3=CN=C(C=C3)N4CCNCC4)C(=O)NCC5=C(C=C(NC5=O)C)C)C
Method in brief: as §1

[14] = compound: CC[C@H](C)[C@@H](C(=O)N[C@@H]([C@@H](C)O)C(=O)N[C@@H](CC(C)C)C(=O)[C@]1(CO1)C)NC(=O)[C@H]([C@@H](C)CC)N(C)C(=O)C [epoxomicin]
Method in brief: as §1

[15] = compound: CCn1c(C(=O)N(C2CC2)C2CC2)cc2c3c(ncn3C)c(Nc3cc(C)n(C)n3)nc21
Method in brief: as §1

[16] = compound: CCn1cc(-c2ccnc3[nH]c(-c4cccc(CN(C)C)c4)cc23)c(-c2ccc(NC(=O)N(C)C)cc2)n1
Method in brief: as §1

[17] = compound: CN(C)CC(=O)Nc1ccc2[nH]c(=O)c3ccccc3c2c1
Method in brief: as §1

[18] = compound: CN(CCOC1=CC=C(C=C1)C[C@H]2C(=O)NC(=O)S2)C3=CC=CC=N3 (racemic) [rosiglitazone]
Method in brief: as §1

[19] = compound: CN1C2=C(C3=C1C(=O)N(N=C3)CC4=CC(=CC=C4)N)SC(=C2)S(=O)C
Method in brief: as §1

[20] = compound: CN1CCC(CNc2ccc3ncc(-c4cccc(OC(F)(F)F)c4)n3n2)CC1
Method in brief: as §1

Measured: log2 fold change

SEC24C (UniProt P53992)
inactive: [1] -0.01 | [2] -0.02 | [3] -0.002 | [4] 0.046 | [5] -0.036 | [6] 0.051 | [7] 0.069 | [8] 0.036 | [9] 0.028 | [10] 0.006 | [11] -0.06 | [12] -0.185 | [13] 0.069 | [14] 0.062 | [15] -0.019 | [16] -0.064 | [17] 0.073 | [18] 0.07 | [19] -0.027 | [20] -0.018

RWDD3 (UniProt Q9Y3V2)
inactive: [1] 0.012

SDSL (UniProt Q96GA7)
inactive: [1] 0.014 | [2] -0.049 | [3] -0.035 | [4] -0.045 | [5] -0.06 | [6] 0.034 | [7] -0.079 | [8] -0.018 | [9] -0.007 | [10] -0.004 | [11] 0.049 | [12] 0.043 | [13] -0.031 | [14] -0.001 | [15] -0.021 | [16] 0.017 | [17] 0.126 | [18] -0.01 | [19] -0.05 | [20] 0.006

SAFB isoform 3 (UniProt Q15424)
inactive: [1] -0.108 | [2] 0.086 | [3] 0 | [4] -0.113 | [5] 0.219 | [6] -0.074 | [7] -0.049 | [8] 0.071 | [9] 0.102 | [10] -0.149 | [11] 0.049 | [12] 0.2 | [13] -0.083 | [14] -0.093 | [15] -0.036 | [16] 0.239 | [17] -0.029 | [18] -0.095 | [19] 0.261 | [20] 0.266

SEC22B (UniProt O75396)
inactive: [1] 0.04 | [2] -0.007 | [3] -0.004 | [4] 0.025 | [5] -0.096 | [6] 0.127 | [7] 0.028 | [8] 0.052 | [9] 0.004 | [10] 0.007 | [11] -0.097 | [12] -0.15 | [13] 0.042 | [14] 0.009 | [15] -0.034 | [16] -0.032 | [17] 0.067 | [18] 0.004 | [19] -0.047 | [20] 0.08

RSBN1 (UniProt Q5VWQ0)
inactive: [1] -0.083 | [2] -0.004 | [3] -0.019 | [4] -0.099 | [5] 0.343 | [6] -0.136 | [7] -0.009 | [8] 0.065 | [9] -0.067 | [10] -0.023 | [11] 0.185 | [12] 0.421 | [13] 0.016 | [14] -0.187 | [15] -0.068 | [16] 0.15 | [17] -0.111 | [18] -0.047 | [19] 0.256 | [20] 0.213

RSU1 (UniProt Q15404)
inactive: [1] -0.05 | [2] 0.004 | [3] 0 | [4] 0.011 | [5] -0.087 | [6] 0.003 | [7] 0.001 | [8] 0.03 | [9] -0.013 | [10] 0.008 | [11] 0.004 | [12] 0.051 | [13] -0.006 | [14] -0.027 | [15] -0.001 | [16] 0.01 | [17] -0.027 | [18] -0.011 | [19] -0.062 | [20] -0.003

SCFD2 (UniProt Q8WU76)
inactive: [1] 0.014 | [2] -0.041 | [3] 0.072 | [4] 0.02 | [5] 0.024 | [6] -0.022 | [7] 0.026 | [8] 0.071 | [9] 0.036 | [10] -0.012 | [11] 0.04 | [12] -0.065 | [13] 0.004 | [14] -0.12 | [15] -0.032 | [16] 0.146 | [17] -0.06 | [18] -0.002 | [19] 0.184 | [20] 0.032

Pulled one by one from the entries so far (2):
SEC22B (UniProt O75396)
inactive: [1] 0.04 | [2] -0.007 | [3] -0.004 | [4] 0.025 | [5] -0.096 | [6] 0.127 | [7] 0.028 | [8] 0.052 | [9] 0.004 | [10] 0.007 | [11] -0.097 | [12] -0.15 | [13] 0.042 | [14] 0.009 | [15] -0.034 | [16] -0.032 | [17] 0.067 | [18] 0.004 | [19] -0.047 | [20] 0.08

RSBN1 (UniProt Q5VWQ0)
inactive: [1] -0.083 | [2] -0.004 | [3] -0.019 | [4] -0.099 | [5] 0.343 | [6] -0.136 | [7] -0.009 | [8] 0.065 | [9] -0.067 | [10] -0.023 | [11] 0.185 | [12] 0.421 | [13] 0.016 | [14] -0.187 | [15] -0.068 | [16] 0.15 | [17] -0.111 | [18] -0.047 | [19] 0.256 | [20] 0.213

(cont.)

RWDD4 (UniProt Q6NW29)
inactive: [1] -0.022 | [2] 0.011 | [3] 0.022 | [4] -0.035 | [5] 0.133 | [6] -0.003 | [7] 0.05 | [8] 0.051 | [9] 0.094 | [10] 0.054 | [11] -0.109 | [12] -0.354 | [13] -0.12 | [14] -0.056 | [15] 0.008 | [16] 0.009 | [17] -0.003 | [18] 0.067 | [19] 0.035 | [20] -0.111

SAR1B (UniProt Q9Y6B6)
inactive: [1] 0.078 | [2] -0.035 | [3] 0.005 | [4] 0.015 | [5] -0.045 | [6] 0.038 | [7] 0.063 | [8] -0.001 | [9] -0.018 | [10] 0.038 | [11] 0.033 | [12] 0.033 | [13] -0.019 | [14] 0.057 | [15] -0.019 | [16] -0.071 | [17] 0.04 | [18] 0.019 | [19] -0.095 | [20] 0.013

SCIN (UniProt Q9Y6U3)
inactive: [1] 0.061 | [2] -0.021 | [3] 0.059 | [4] -0.029 | [5] 0.054 | [6] -0.076 | [7] 0.094 | [8] -0.018 | [9] 0.043 | [10] 0.047 | [11] -0.094 | [12] -0.197 | [13] 0.043 | [14] 0 | [15] -0.025 | [16] -0.067 | [17] 0.02 | [18] 0.059 | [19] 0.036 | [20] -0.165

SEC11C (UniProt Q9BY50)
inactive: [1] -0.003 | [2] -0.003 | [3] 0.035 | [4] 0.002 | [5] -0.053 | [6] 0.041 | [7] 0.058 | [8] 0.06 | [9] 0.048 | [10] 0.031 | [11] -0.005 | [12] -0.054 | [13] 0.028 | [14] 0.103 | [15] 0.041 | [16] 0.024 | [17] 0.006 | [18] 0.047 | [19] -0.012 | [20] -0.111

RWDD1 (UniProt Q9H446)
inactive: [1] -0.028 | [2] 0.013 | [3] 0.028 | [4] 0.044 | [5] -0.059 | [6] 0.003 | [7] 0.071 | [8] -0.019 | [9] -0.019 | [10] 0.041 | [11] -0.075 | [12] -0.122 | [13] 0.015 | [14] 0.041 | [15] 0.05 | [16] -0.035 | [17] 0.05 | [18] -0.001 | [19] -0.066 | [20] 0.02

SART1 (UniProt O43290)
inactive: [1] 0.014 | [2] -0.032 | [3] -0.011 | [4] -0.031 | [5] 0.274 | [6] -0.11 | [7] 0.019 | [8] 0.118 | [9] 0.088 | [10] -0.096 | [11] 0.114 | [12] 0.112 | [13] 0.031 | [14] -0.375 | [15] 0.003 | [16] 0.189 | [17] -0.137 | [18] -0.13 | [19] 0.262 | [20] 0.22

SDHB (UniProt P21912)
inactive: [1] 0.003 | [2] 0.008 | [3] 0 | [4] -0.01 | [5] -0.036 | [6] 0.016 | [7] 0.011 | [8] 0.141 | [9] -0.024 | [10] 0.012 | [11] -0.031 | [12] 0.072 | [13] 0.036 | [14] -0.021 | [15] 0.029 | [16] -0.032 | [17] 0 | [18] -0.026 | [19] -0.024 | [20] -0.079

SCO1 (UniProt O75880)
inactive: [1] -0.031 | [2] -0.028 | [3] 0.025 | [4] 0.021 | [5] -0.01 | [6] 0.038 | [7] 0.033 | [8] -0.064 | [9] 0.05 | [10] 0.009 | [11] -0.064 | [12] -0.243 | [13] -0.019 | [14] 0.005 | [15] 0.004 | [16] -0.016 | [17] -0.041 | [18] 0.007 | [19] -0.007 | [20] -0.074

SBNO1 (UniProt A3KN83)
inactive: [1] -0.022 | [2] -0.024 | [3] -0.014 | [4] 0.033 | [5] -0.074 | [6] 0.006 | [7] 0.023 | [8] -0.004 | [9] -0.006 | [10] 0.037 | [11] -0.022 | [12] -0.115 | [13] 0.015 | [14] 0.056 | [15] -0.007 | [16] -0.003 | [17] -0.008 | [18] 0.005 | [19] -0.046 | [20] 0.051
